# Source: PubChem BioAssay AID540256 (National Center for Advancing Translational Sciences (NCATS), 2011)
# Screen size: about 300,000 compounds; about 3,700 (1.2%) were called active. This list was built around the results that the source calls inconclusive (neither active nor inactive); the mix of calls is not that of the screen. Calls follow the shape of the full dose curve; tested in HEK293 cells. A potency beside an inconclusive call is a rough fit, not a confirmed value.
# Experiment: qHTS for Inhibitors of binding or entry into cells for Lassa Virus; also: nearly all actives have a fitted effect of over 50% in size
# Conditions: Lassa virus pseudotype entry inhibition, cell reporter; series mostly up to 37.9 µM
# Potency is read from the fitted curve at half-maximal effect.
row,Compound,Potency
1,Cc1ccc(NC(=O)/C(=C/c2ccco2)c2ccccc2)c(C)c1,inactive
2,CC(=O)N1CCc2cc(C(=O)CN3CCN(c4ccccn4)CC3)ccc21,"inconclusive: 17.8 µM [activator, single point]"
3,Cc1nc(NC(=O)c2ccco2)sc1C(=O)O,inactive
4,Cc1ccc(C2N3CC4(C)CN2CC(c2ccccc2)(C3)C4=O)cc1 (stereo not given),inactive
5,O=C(O)c1ccc2c(c1)N(Cc1ccccc1)C(=O)c1ccccc1S2,inactive
6,COC(=O)c1c2c(nc3ccccc13)CCC2,inactive
7,COCCNC(=O)CCCn1c(SCc2ccccc2C)nc2c(sc3ccccc32)c1=O,"inconclusive: 6.31 µM [inhibitor, partial curve, poor fit]"
8,Cc1nn(C)cc1CNC(=O)C1(C)CC1(Cl)Cl (stereo not given),"inconclusive: 35.5 µM [activator, partial curve, poor fit]"
9,Cc1cc(Nc2c(C)n(C)n(-c3ccccc3)c2=O)c2ccccc2n1,"inconclusive: 0.501 µM [inhibitor, partial curve, poor fit]"
10,Cc1nn(Cc2ccc(Cl)cc2)c(C)c1NC(=O)CSc1nc2c(c(C(F)(F)F)n1)CCc1ccccc1-2,inactive
11,O=C1NC(=O)N(C2CCCCC2)CC1Br (stereo not given),inactive
12,CCCn1c(=N)c(C(=O)NCc2ccco2)cc2c(=O)n3cc(C)ccc3nc21,inactive
13,CCOC(=O)C1CCN(S(=O)(=O)c2cccc3nonc23)CC1,inactive
14,COCCCn1cc(C(=O)c2cc(Br)ccc2O)cc(C#N)c1=O,"inconclusive: 8.91 µM [inhibitor, partial curve]"
15,Cc1ccc(C(=O)c2coc3ccc(O)c(Cl)c23)cc1,"inconclusive: 16.4 µM [inhibitor, partial curve]"
16,CCc1ccc2oc(-c3cccc(NC(=O)c4cccnc4)c3)nc2c1,"inconclusive: 35.5 µM [inhibitor, single point]"
17,CCOC(=O)N1CCN(C(=O)C2CCN(S(=O)(=O)c3cc(C)ccc3OC)CC2)CC1,inactive
18,COc1cc2c(cc1OC)C(C)N(C(=O)c1cc3ccccc3o1)CC2 (stereo not given),"inconclusive: 23.1 µM [inhibitor, partial curve]"
19,O=C(CC(O)(C(F)(F)F)C(F)(F)F)Nc1ccc(Cl)c(Cl)c1,active: 4.61 µM
20,CC(C)CN(C(=O)C1CCCCC1)C1CCS(=O)(=O)C1 (stereo not given),"inconclusive: 0.631 µM [activator, partial curve, poor fit]"
21,Nc1ccc(Oc2ccc3c(c2)C(=O)N(CC2CCCO2)C3=O)cc1 (stereo not given),inactive
22,CCCOC(=O)c1c(-c2ccccc2)nc(CC)c(C(=O)SCC)c1CCC,"inconclusive: 23.1 µM [inhibitor, partial curve, poor fit]"
23,COc1ccc2nc(C)cc(N/N=C/c3ccc(F)cc3)c2c1,"inconclusive: 31.6 µM [inhibitor, single point]"
24,O=C(NCCc1c[nH]c2ccccc12)c1cnccn1,inactive
25,CC(/C=C1\SC(=O)N(CC(=O)Nc2cccc(O)c2)C1=O)=C\c1ccccc1,"inconclusive: 29.1 µM [inhibitor, partial curve, poor fit]"

# Structures from the list above containing a carbonyl joined to an NH by a bond outside any ring:
row,Compound,Potency
1,Cc1ccc(NC(=O)/C(=C/c2ccco2)c2ccccc2)c(C)c1,inactive
3,Cc1nc(NC(=O)c2ccco2)sc1C(=O)O,inactive
7,COCCNC(=O)CCCn1c(SCc2ccccc2C)nc2c(sc3ccccc32)c1=O,"inconclusive: 6.31 µM [inhibitor, partial curve, poor fit]"
8,Cc1nn(C)cc1CNC(=O)C1(C)CC1(Cl)Cl (stereo not given),"inconclusive: 35.5 µM [activator, partial curve, poor fit]"
10,Cc1nn(Cc2ccc(Cl)cc2)c(C)c1NC(=O)CSc1nc2c(c(C(F)(F)F)n1)CCc1ccccc1-2,inactive
12,CCCn1c(=N)c(C(=O)NCc2ccco2)cc2c(=O)n3cc(C)ccc3nc21,inactive
16,CCc1ccc2oc(-c3cccc(NC(=O)c4cccnc4)c3)nc2c1,"inconclusive: 35.5 µM [inhibitor, single point]"
19,O=C(CC(O)(C(F)(F)F)C(F)(F)F)Nc1ccc(Cl)c(Cl)c1,active: 4.61 µM
24,O=C(NCCc1c[nH]c2ccccc12)c1cnccn1,inactive
25,CC(/C=C1\SC(=O)N(CC(=O)Nc2cccc(O)c2)C1=O)=C\c1ccccc1,"inconclusive: 29.1 µM [inhibitor, partial curve, poor fit]"

# Following part.

row,Compound,Potency
1,Cc1oc2ncnc(N3CCOCC3)c2c1C(=O)Nc1ccc(Br)cc1F,inactive
2,COC(=O)[C@@]1(Cc2ccc(OC)cc2)[C@H]2c3cc(C(=O)N4CCCC4)n(CCc4c[nH]c5ccc(O)cc45)c3C[C@H]2CN1C(=O)c1ccccc1,inactive
3,COc1ccccc1NC(=O)Cc1csc(NC(=O)c2ccccc2)n1,"inconclusive: 29.1 µM [inhibitor, single point]"
4,Cc1ccc(-c2csc3ncnc(N4CCN(C(=O)c5ccccc5)CC4)c23)cc1,"inconclusive: 35.5 µM [inhibitor, single point]"
5,Cc1ccc(S(=O)(=O)Nc2nc3ccccc3nc2N2CCN(c3ccccc3F)CC2)cc1,inactive
6,O=C(Cn1c(=O)c2cccn2c2ccc(F)cc21)Nc1cccc(F)c1,inactive
7,O=c1cc(-c2ccc(Cl)cc2)[nH][nH]1,"inconclusive: 3.66 µM [activator, partial curve, poor fit]"
8,S=C(NCc1ccccc1)NNc1nc2ccccc2[nH]1,"inconclusive: 11.2 µM [inhibitor, partial curve, poor fit]"
9,COC(=O)c1sccc1NC(=S)N1CCN(c2cccc(C)c2C)CC1,"inconclusive: 2.59 µM [inhibitor, full curve, poor fit]"
10,O=C(NCCc1ccccc1)c1ccc2c(c1)CCN2S(=O)(=O)c1ccc(Cl)cc1,"inconclusive: 5.01 µM [inhibitor, partial curve, poor fit]"
11,CCN1C(=O)/C(=C/N(C)c2ccccc2)OC1=S,inactive
12,Cc1ccc(S(=O)(=O)NCC(c2ccco2)N2CCc3ccccc3C2)cc1 (stereo not given),inactive
13,Cc1ccc(S(=O)(=O)Nc2ccccc2N2CCOCC2)cc1,inactive
14,COc1ccc(CCC(=O)N/N=C/c2ccc3c(c2)OCO3)cc1,active: 0.1 µM
15,Cc1cc(NC(=O)c2cc(-c3ccc(F)cc3)on2)nn1Cc1ccc(Cl)cc1,inactive
16,O=C(CSc1nnc(-c2cccs2)o1)Nc1cccc(S(=O)(=O)N2CCCCC2)c1,inactive
17,COc1ccc(Nc2nc(C)cc(C)c2C(N)=O)cc1OC,inactive
18,COc1ccccc1CNc1ncnc2c1nc1n2CCCC1,"inconclusive: 35.5 µM [inhibitor, single point]"
19,Cc1ccc(SC(CC(=O)c2ccc(F)cc2)C(=O)O)cc1 (stereo not given),"inconclusive: 3.16 µM [activator, single point]"
20,CC1CCCCC1NC(=O)c1cc2c(s1)CS(=O)(=O)C2 (stereo not given),inactive
21,COC(=O)Cc1csc(Nc2ccccc2)n1,"inconclusive: 1.26 µM [activator, single point]"
22,COc1cccc(NC(=O)CSc2nnc(-c3cc(-c4ccccn4)nc4ccccc34)o2)c1,inactive
23,CCOc1ccc(S(=O)(=O)N2CCCCCC2)cc1,inactive
24,CCOC(=O)c1ccccc1NS(=O)(=O)c1ccc(OCC)cc1,active: 2.59 µM
25,O=C(/C=C/c1ccc(F)cc1)NCCC1=CCCCC1,"inconclusive: 2.91 µM [activator, partial curve, poor fit]"

row,Compound,Potency
1,O=C(CSc1ncccn1)c1ccccc1Br,"inconclusive: 7.94 µM [activator, partial curve]"
2,COc1ccc(Cl)cc1NC(=O)CSc1nc(=O)[nH]c2c1CCC2,inactive
3,COc1ccc2c(Cl)c(C(=O)N/N=C/c3ccc4c(c3)OCO4)sc2c1,"inconclusive: 2.51 µM [inhibitor, full curve]"
4,Cc1cccc(NC(=O)c2oc3ccccc3c2NC(=O)Cc2coc3cc(C)cc(C)c23)c1,inactive
5,COc1cccc(NC(=O)CSc2ncnc3c2cnn3Cc2ccccc2)c1,inactive
6,O=C(Nc1ccc(Cl)cc1F)c1cc(S(=O)(=O)NC2CCCCCC2)ccc1F,"inconclusive: 6.31 µM [inhibitor, single point]"
7,CC(C)C(C(=O)O)N1C(=O)/C(=C/c2cccn2C)SC1=S (stereo not given),inactive
8,CC1CCC(NC(=O)C2c3ccccc3C(=O)N2Cc2ccc3c(c2)OCO3)CC1 (stereo not given),"inconclusive: 8.91 µM [inhibitor, partial curve, poor fit]"
9,CCc1ccc(NC(=O)CN2C(C(=O)OC)=C(c3ccccc3)c3ccccc3S2(=O)=O)cc1,"inconclusive: 35.5 µM [inhibitor, single point]"
10,COCCNC(=O)CSc1nc(-c2ccc(C)cc2)[nH]c1-c1ccc(OC)cc1,"inconclusive: 15.8 µM [inhibitor, single point]"
11,Cc1ccc(O)c(CC(C)C)n1,inactive
12,COc1ccc(C(=O)c2sc3nc(-c4ccccc4)ccc3c2N)cc1,"inconclusive: 3.98 µM [inhibitor, partial curve, poor fit]"
13,O=C(CC(c1ccccc1)c1cc(Cl)ccc1O)N1CCOCC1 (stereo not given),inactive
14,N#Cc1cc(C(=O)c2ccccc2O)cn(-c2nccs2)c1=O,"inconclusive: 20.6 µM [inhibitor, partial curve, poor fit]"
15,CN(C)c1ccc(-n2cccc2/C=C/[N+](=O)[O-])cc1,"inconclusive: 35.5 µM [inhibitor, single point]"
16,Cc1ccc(C(C(=O)NCC2CCCO2)N(Cc2ccccc2)C(=O)c2ccc(-c3ccccc3)[nH]2)o1 (stereo not given),"inconclusive: 28.2 µM [inhibitor, single point]"
17,O=C(CSc1nccn1-c1ncc(C(F)(F)F)cc1Cl)c1ccc(Br)cc1,"inconclusive: 3.98 µM [activator, partial curve, poor fit]"
18,O=C(CCCN1C(=O)/C(=C\c2cccs2)SC1=S)Nc1cccnc1,inactive
19,CCc1nc(SCC(=O)c2cccs2)c2oc3ccccc3c2n1,inactive
20,CC(NC(=O)/C=C/c1ccc(Br)cc1)c1ccc(Cl)cc1 (stereo not given),"inconclusive: 3.98 µM [inhibitor, full curve, poor fit]"
21,COC(=O)N/N=C/c1cn(Cc2ccc(Cl)cc2Cl)c2ccccc12,"inconclusive: 29.1 µM [inhibitor, single point]"
22,O=C(Nc1nc2ccccc2n1CCOc1ccccc1Cl)c1ccccc1,"inconclusive: 31.6 µM [activator, single point]"
23,O=C(Nc1ccccc1C(=O)Nc1ccc2c(c1)OCO2)c1cccs1,"inconclusive: 10.3 µM [activator, partial curve]"
24,CN(CC(=O)Nc1cccc(F)c1)C(=O)CCCn1c(=O)oc2ccccc21,"inconclusive: 31.6 µM [activator, single point]"
25,CCOc1cccc(C2c3c(oc4ccc(F)cc4c3=O)C(=O)N2c2cc(C)ccn2)c1 (stereo not given),inactive

# Part of the list above, tab-delimited.
row	Compound	Potency
18	COc1cc2c(cc1OC)C(C)N(C(=O)c1cc3ccccc3o1)CC2 (stereo not given)	inconclusive: 23.1 µM [inhibitor, partial curve]
19	O=C(CC(O)(C(F)(F)F)C(F)(F)F)Nc1ccc(Cl)c(Cl)c1	active: 4.61 µM
